Results taken from article PMC10747525.

By UniProt entry, the sequences of proteins in these tests, tags left out. Where a name states a change or a piece, a line headed by the entry shows the natural chain unless it says otherwise.
UniProt O95202: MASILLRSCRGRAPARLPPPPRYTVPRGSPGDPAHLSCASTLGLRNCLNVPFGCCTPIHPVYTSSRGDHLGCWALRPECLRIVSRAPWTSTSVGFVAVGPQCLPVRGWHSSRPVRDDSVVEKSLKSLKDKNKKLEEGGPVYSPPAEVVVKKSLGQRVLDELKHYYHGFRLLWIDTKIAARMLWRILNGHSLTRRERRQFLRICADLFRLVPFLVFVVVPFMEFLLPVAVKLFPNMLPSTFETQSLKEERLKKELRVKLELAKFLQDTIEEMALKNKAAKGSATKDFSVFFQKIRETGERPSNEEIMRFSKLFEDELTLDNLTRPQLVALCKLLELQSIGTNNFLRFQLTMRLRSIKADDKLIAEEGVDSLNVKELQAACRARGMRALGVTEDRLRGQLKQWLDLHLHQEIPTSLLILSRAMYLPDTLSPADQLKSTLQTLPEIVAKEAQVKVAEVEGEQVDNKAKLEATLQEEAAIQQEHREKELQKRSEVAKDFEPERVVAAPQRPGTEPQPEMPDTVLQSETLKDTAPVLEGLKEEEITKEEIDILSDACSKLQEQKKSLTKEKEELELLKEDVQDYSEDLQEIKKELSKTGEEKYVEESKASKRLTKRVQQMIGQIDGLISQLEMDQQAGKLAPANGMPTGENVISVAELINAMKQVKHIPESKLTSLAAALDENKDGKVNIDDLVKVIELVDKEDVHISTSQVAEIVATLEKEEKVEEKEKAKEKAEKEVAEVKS

Molecular target: HAdV-C5 E1B-55K (human adenovirus C5 (HAdV-C5)) (UniProt P03243)
Experiment: co-IP

Substance: LETM1 (from UniProt O95202)
- binding: binds

Results are given in words; binding and its absence hold for the method and conditions named. In cells and extracts the contact can be indirect. Binding can be weak; no strength is given.
